Data: PubChem BioAssay AID540275 (National Center for Advancing Translational Sciences (NCATS), 2011)
The whole screen tested about 320,000 compounds, of which about 620 (0.19%) were called active. The shares of active, inactive and inconclusive entries below differ from those in the screen. Rule as the data show it: active = activation above about 80%; inconclusive = between about 30% and that limit; inactive = weaker than that.

By UniProt entry, the sequences of proteins in these tests, tags left out.
UniProt Q8NER1, whole entry, looked up: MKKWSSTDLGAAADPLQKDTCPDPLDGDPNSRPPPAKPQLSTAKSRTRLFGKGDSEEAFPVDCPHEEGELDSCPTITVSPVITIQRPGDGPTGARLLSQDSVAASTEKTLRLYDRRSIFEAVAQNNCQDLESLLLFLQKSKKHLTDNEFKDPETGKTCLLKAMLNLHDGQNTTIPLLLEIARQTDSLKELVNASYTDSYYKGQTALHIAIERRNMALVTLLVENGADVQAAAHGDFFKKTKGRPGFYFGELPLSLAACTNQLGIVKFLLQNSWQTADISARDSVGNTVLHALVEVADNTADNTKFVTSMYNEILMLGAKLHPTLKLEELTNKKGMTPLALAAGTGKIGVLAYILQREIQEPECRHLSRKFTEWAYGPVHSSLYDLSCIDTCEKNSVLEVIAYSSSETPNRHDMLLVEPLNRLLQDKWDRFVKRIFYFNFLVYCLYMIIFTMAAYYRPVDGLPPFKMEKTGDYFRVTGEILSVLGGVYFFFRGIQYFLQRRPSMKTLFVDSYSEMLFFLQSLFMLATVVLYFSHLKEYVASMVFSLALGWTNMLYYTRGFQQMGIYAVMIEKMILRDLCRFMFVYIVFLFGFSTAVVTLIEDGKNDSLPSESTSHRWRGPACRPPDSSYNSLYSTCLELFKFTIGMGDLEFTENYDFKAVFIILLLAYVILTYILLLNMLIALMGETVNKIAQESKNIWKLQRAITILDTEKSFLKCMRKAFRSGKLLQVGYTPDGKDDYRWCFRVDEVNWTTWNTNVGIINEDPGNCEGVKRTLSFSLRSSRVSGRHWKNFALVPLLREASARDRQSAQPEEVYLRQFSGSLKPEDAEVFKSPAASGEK

What follows are molecules tested against Transient receptor potential cation channel subfamily V member 1 (Homo sapiens) (UniProt Q8NER1) (assay: HTS Assay for Compounds that Act as Agonists of the Vanilloid Receptor 1). Conditions: TRPV1-expressing cells, Fluo-8 calcium influx, agonist mode; at 8.33 µM; active compounds read high.
Procedure, shortened: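 Fluo-8 calcium influx in TRPV1-expressing cells, kinetic read (ex 480/em 520 nm). Compound added and read 3 min for agonist activity, followed by capsaicin at EC20 final and 2 min further read for enhancement.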
Also: 0% is about no effect.

Structure (SMILES)	activation
COc1ccc(C(=O)C2CCCN(C3CSCCSC3)C2)c(C)c1 (stereo not given)	inconclusive: 61.1%
CC(C)(C)c1ccc(OC(=O)N2CCCCC2)cc1	inconclusive: 57.4%
CCCCCn1c(=O)c(C(=O)Nc2ccccc2N)c(O)c2ccccc21	inactive: 1.61%
CCOc1cccc(CNCCc2c(C)[nH]c3ccc(OC(F)(F)F)cc23)c1O	inconclusive: 32.2%
O=Cc1cn(Cc2ccc(F)cc2)c2ccccc12	inconclusive: 53.1%
COC(=O)C1=C(c2ccc(F)cc2OCc2ccccc2)C[C@@H]2CC[C@H]1N2C(=O)NCc1ccc2c(c1)OCO2	inconclusive: 30.7%
O=[N+]([O-])NC1=NCCN1Cc1ccc(Cl)nc1	inactive: -0.958%
CN[C@H](C)[C@H](O)c1ccccc1	inconclusive: 33.6%
O=C(N/N=C1/CN2CCC1CC2)c1cc2ccccc2cc1O	inactive: -6.35%
CCCCCn1cc(C(=O)C(=O)N2CCOCC2)c2ccccc21	inconclusive: 35.6%
O=[N+]([O-])c1cccc(NP(=O)(Oc2ccccc2)Oc2ccccc2)c1	inconclusive: 35.3%
COc1cccc(CC(=O)N2CCN(Cc3cccc(Cl)c3)CC2)c1	inconclusive: 38.6%
O=C(c1ccc(N2CCCCC2)c([N+](=O)[O-])c1)N1CCC2(CC1)OCCO2	inconclusive: 39.2%
O=C(CCn1nc(-c2ccc(Cl)cc2)ccc1=O)N1CCC2(CC1)OCCO2	inactive: 1.49%
CN1CCN(C(=O)COc2ccc(C(C)(C)C)cc2Br)CC1	inconclusive: 33%
O=C1NC(=O)N(Cc2ccc(F)cc2)C(=O)/C1=C\C=C\c1ccco1	inactive: 13.7%
CC(C)(C)c1ccc(CSc2cnn(C(C)(C)C)c(=O)c2Cl)cc1	inactive: 7.14%
O=C(NCc1ccccc1)c1cccn(Cc2cccc(Cl)c2)c1=O	inconclusive: 45.6%
COC(=O)[C@]1(C)C[C@H]1[C@H](NP(=O)(c1ccccc1)c1ccccc1)c1ccccc1	inconclusive: 50.7%
N=C(N)c1c(O)n(C2CCCCC2)c(=O)n(C2CCCCC2)c1=O	inconclusive: 39.5%
O=c1c2ccccc2nc(-c2ccco2)n1-c1nccs1	inactive: 1.71%
O=C(c1ccc2c(c1)N(Cc1ccccc1)CCS2)N1CCC2(CC1)OCCO2	inconclusive: 31.7%
CCOc1ccc(CNCCc2ccc3c(c2)OCO3)cc1	inactive: 8.25%
Cc1cc(OCC(=O)OC(C)C)c2c3c(c(=O)oc2c1)CCCC3	inconclusive: 40.8%
Cc1cccc(-n2c(O)c(/C=C3/C(c4ccccc4)=Nc4ccccc43)c(=O)[nH]c2=O)c1	inconclusive: 30.5%

Exported with bars between the fields: entries from further up
Structure (SMILES) | activation
CCOc1ccc(CNCCc2ccc3c(c2)OCO3)cc1 | inactive: 8.25%
Cc1cc(OCC(=O)OC(C)C)c2c3c(c(=O)oc2c1)CCCC3 | inconclusive: 40.8%
